# Values joined by “and” are separate entries in the source; they are usually repeats but may differ in a detail not shown here. Equal entries are not always repeated. The campaign covered roughly 300,000 compounds. About 3,700 (1.2%) were called active. This list was built around the results that the source calls inconclusive (neither active nor inactive); the mix of calls is not that of the screen. Calls come from the whole dose curve; tested in HEK293 cells. Potencies of inconclusive entries are doubtful fits and often do not repeat.
# Test: qHTS for Inhibitors of binding or entry into cells for Lassa Virus; note: nearly all actives have a fitted effect of over 50% in size
# Details: Lassa virus pseudotype entry inhibition, cell reporter; activity change, negative = inhibition: at 37.9 µM (top of the series) unless noted
# % is set by controls: 0 for no effect and ±100 for the full control effect; potency is the fitted concentration of half-maximal effect.
Structure (SMILES),Potency,"activity change, negative = inhibition"
CSc1ccc(/C=C/C(=O)Nc2ccccc2)cc1,"inconclusive: 8.91 µM [inhibitor, partial curve, poor fit]",–
Cc1cccn2c(=O)c(C=C(C#N)C#N)c(N3CCN(C)CC3)nc12,"inconclusive: 3.55 µM [activator, partial curve, poor fit]",–
CC12CCC(c3nnc(SCC(=O)Nc4cccc5ccccc45)nc31)C2(C)C (stereo not given),"inconclusive: 18.3 µM [inhibitor, partial curve, poor fit]",–
CCc1nc2c(cnn2-c2ccc(Cl)cc2)c(=O)n1-c1ccc(OC)cc1,"inconclusive: 28.2 µM [inhibitor, single point]",–
COc1ccc(NC(=O)c2ccc3c(c2)CCN3S(=O)(=O)c2ccccc2)cc1,"inconclusive: 8.91 µM [inhibitor, partial curve, poor fit] and inconclusive: 2.82 µM [inhibitor, partial curve, poor fit]",–
COc1ccc(-c2cc(C(=O)Oc3cccc(C)c3C)c3ccccc3n2)cc1,–,inactive: -1.72% [at 46.1 µM]
CC(=O)Nc1nonc1-c1nnc(SCc2ccccc2Cl)n1C,–,inactive: -2.82% [at 46.1 µM]
COc1ccc(OC)c(NC(=O)Cn2cc(C(=O)c3ccc(Cl)cc3)c(=O)c3cc(OC)ccc32)c1,–,inactive: -5.08% [at 46.1 µM]
Cc1cc(C(=O)N/N=C/c2ccncc2)c(C)o1,–,inactive: -4.9%
Cc1ccc(O)c(NC(=O)COCc2cc(-c3ccco3)on2)c1,"inconclusive: 7.08 µM [inhibitor, partial curve]",–
CC(=O)Nc1ccc(OC(=O)CC2SC(=O)NC2=O)cc1 (stereo not given),–,inactive: 2.64%
CC(C)(C)OC(=O)N1CCC(c2c(C(=O)N3CCN(c4ncccn4)CC3)cnn2-c2cccc(F)c2)CC1,"inconclusive: 3.16 µM [inhibitor, partial curve, poor fit]",–
O=C(CN1CCN(CC(=O)c2ccc(Cl)cc2)CC1)c1ccc(Cl)cc1,–,inactive: 19.9%
O=C1N(Cc2ccccc2)CC2(Br)COCOC12O (stereo not given),"inconclusive: 12.6 µM [inhibitor, partial curve]",–
O=C(OC(C(=O)Nc1ccc([N+](=O)[O-])cc1Br)c1ccccc1)c1ccccc1 (stereo not given),–,inactive: -2.39%
CCCC(=O)NC(c1ccc(N(C)C)cc1)c1ccc2cccnc2c1O (stereo not given),"inconclusive: 3.16 µM [inhibitor, full curve, poor fit]",–
COc1ccc(NC(=O)CCCS(=O)(=O)c2nc(-c3ccc(OC)c(OC)c3)cc(C(F)(F)F)n2)cc1OC,"inconclusive: 35.5 µM [inhibitor, single point]",–
COc1ccc(N(C(=O)c2snc(C(N)=O)c2N)C(C(=O)NC2CCCC2)c2cccs2)c(OC)c1 (stereo not given),"inconclusive: 12.6 µM [inhibitor, partial curve, poor fit]",–
COc1ccc(-c2nn(-c3ccccc3)cc2/C=C(\CC(=O)O)c2nc3ccccc3s2)cc1OC,"inconclusive: 17.8 µM [inhibitor, partial curve, poor fit]",–
FC(F)(F)c1cnc(COc2ccc(Cl)cc2Cl)c(Cl)c1,–,inactive: 0.41%

Structure (SMILES),Potency,"activity change, negative = inhibition"
COc1ccc(C2CC(=O)N3CN(C4CCCCC4)CSC3=C2C#N)cc1 (stereo not given),–,inactive: 4.69% [at 46.1 µM]
C=CCn1c(SCC(=O)NCc2ccc3c(c2)OCO3)nc2scc(-c3ccc(F)cc3)c2c1=O,"inconclusive: 8.2 µM [inhibitor, partial curve, poor fit]",–
Cc1cc([N+](=O)[O-])nn1CC(=O)Nc1c(C)n(C)n(-c2ccccc2)c1=O,–,inactive: -1.67%
N#Cc1ccc(NC(=O)NN2CCCCCC2)cc1,"inconclusive: 0.891 µM [inhibitor, single point]",–
O=C(CNc1cc(S(=O)(=O)N2CCOCC2)ccc1N1CCOCC1)Nc1cccc(C(F)(F)F)c1,"inconclusive: 3.16 µM [inhibitor, full curve]",–
CCc1ccc(CNC(=O)CSCc2cnn(-c3ccccc3)c2-n2cccc2)cc1,"inconclusive: 5.01 µM [inhibitor, full curve, poor fit]",–
COCCNC(=O)COC(=O)/C=C/c1c(C)nn(Cc2ccc(Cl)cc2Cl)c1Cl,"inconclusive: 11.2 µM [inhibitor, partial curve]",–
CC(C)n1nc(C(=O)NNC(=O)c2ccncc2)c2ccccc2c1=O,"inconclusive: 31.6 µM [inhibitor, single point]",–
COc1ccccc1NC(=O)Nc1ccccc1N1CCOCC1,"inconclusive: 3.16 µM [activator, full curve]",–
COc1ccc(/C=C/C2=NN(Cc3ccccc3)C(=O)CC2)cc1,"inconclusive: 7.94 µM [inhibitor, partial curve, poor fit]",–
COc1ccc(-n2c(=O)c3c4c(sc3n(Cc3cc(=O)n5c(C)cccc5n3)c2=O)CCC4)c(OC)c1,"inconclusive: 0.891 µM [inhibitor, full curve, poor fit]",–
Cc1ccc(-c2cc(C(=O)Nc3ccccn3)c3ccccc3n2)o1,–,inactive: -6.61%
CC(=O)c1ccccc1NC(=O)c1ccc(N2CCCC2=O)cc1,active: 11.2 µM,–
CCC1CN(C(=O)NCc2ccc(F)cc2)c2ccccc2O1 (stereo not given),"inconclusive: 11.2 µM [inhibitor, single point] and inconclusive: 35.5 µM [inhibitor, single point]",–
Cc1ccc(CNC(=O)CS(=O)CC(=O)O)cc1 (stereo not given),"inconclusive: 11.2 µM [activator, partial curve]",–
O=C(Cn1cc(SCc2ccccc2Cl)c2ccccc21)N1CCCCCC1,"inconclusive: 3.16 µM [inhibitor, partial curve, poor fit]",–
COc1ccc(OC)c(CNS(=O)(=O)c2ccc(-c3cc(C(F)(F)F)on3)s2)c1,–,inactive: 11.8% [at 46.1 µM]
CC(=O)Nc1ccc2c(CN3C(=O)NC(C)(c4ccc(C)cc4)C3=O)cc(=O)oc2c1 (stereo not given),"inconclusive: 0.708 µM [inhibitor, single point]",–
O=C(NCCC1=CCCCC1)c1ccc2c(c1)N(Cc1ccccc1)C(=O)c1ccccc1S2(=O)=O,"inconclusive: 7.08 µM [inhibitor, partial curve, poor fit]",–
COc1ccc(S(=O)(=O)N2CCOCC2)cc1NC(=O)Cc1coc2cc(C)ccc12,"inconclusive: 3.98 µM [inhibitor, partial curve]",–

# Sorted by molar mass (descending): some entries from above
Structure (SMILES),Potency,"activity change, negative = inhibition"
COc1ccc(-n2c(=O)c3c4c(sc3n(Cc3cc(=O)n5c(C)cccc5n3)c2=O)CCC4)c(OC)c1,"inconclusive: 0.891 µM [inhibitor, full curve, poor fit]",–
COc1ccc(OC)c(CNS(=O)(=O)c2ccc(-c3cc(C(F)(F)F)on3)s2)c1,–,inactive: 11.8% [at 46.1 µM]
COc1ccc(S(=O)(=O)N2CCOCC2)cc1NC(=O)Cc1coc2cc(C)ccc12,"inconclusive: 3.98 µM [inhibitor, partial curve]",–
O=C(Cn1cc(SCc2ccccc2Cl)c2ccccc21)N1CCCCCC1,"inconclusive: 3.16 µM [inhibitor, partial curve, poor fit]",–
CC(C)n1nc(C(=O)NNC(=O)c2ccncc2)c2ccccc2c1=O,"inconclusive: 31.6 µM [inhibitor, single point]",–
Cc1ccc(CNC(=O)CS(=O)CC(=O)O)cc1 (stereo not given),"inconclusive: 11.2 µM [activator, partial curve]",–
N#Cc1ccc(NC(=O)NN2CCCCCC2)cc1,"inconclusive: 0.891 µM [inhibitor, single point]",–

# From PubChem BioAssay AID540256 (National Center for Advancing Translational Sciences (NCATS), 2011)
